Patent US20190290692A1 (MINERVA BIOTECHNOLOGIES, published 2019)
No constants are given. Whether binding was seen depends on the method and setting. Some binding calls cover weakened binding; strength is not graded here. Each block holds one binder with its values, some of them ahead of it.

The chains behind the UniProt entries cited, without tags or fusion partners. Where a name states a change or a piece, a line headed by the entry shows the natural chain unless it says otherwise.
UniProt P15941: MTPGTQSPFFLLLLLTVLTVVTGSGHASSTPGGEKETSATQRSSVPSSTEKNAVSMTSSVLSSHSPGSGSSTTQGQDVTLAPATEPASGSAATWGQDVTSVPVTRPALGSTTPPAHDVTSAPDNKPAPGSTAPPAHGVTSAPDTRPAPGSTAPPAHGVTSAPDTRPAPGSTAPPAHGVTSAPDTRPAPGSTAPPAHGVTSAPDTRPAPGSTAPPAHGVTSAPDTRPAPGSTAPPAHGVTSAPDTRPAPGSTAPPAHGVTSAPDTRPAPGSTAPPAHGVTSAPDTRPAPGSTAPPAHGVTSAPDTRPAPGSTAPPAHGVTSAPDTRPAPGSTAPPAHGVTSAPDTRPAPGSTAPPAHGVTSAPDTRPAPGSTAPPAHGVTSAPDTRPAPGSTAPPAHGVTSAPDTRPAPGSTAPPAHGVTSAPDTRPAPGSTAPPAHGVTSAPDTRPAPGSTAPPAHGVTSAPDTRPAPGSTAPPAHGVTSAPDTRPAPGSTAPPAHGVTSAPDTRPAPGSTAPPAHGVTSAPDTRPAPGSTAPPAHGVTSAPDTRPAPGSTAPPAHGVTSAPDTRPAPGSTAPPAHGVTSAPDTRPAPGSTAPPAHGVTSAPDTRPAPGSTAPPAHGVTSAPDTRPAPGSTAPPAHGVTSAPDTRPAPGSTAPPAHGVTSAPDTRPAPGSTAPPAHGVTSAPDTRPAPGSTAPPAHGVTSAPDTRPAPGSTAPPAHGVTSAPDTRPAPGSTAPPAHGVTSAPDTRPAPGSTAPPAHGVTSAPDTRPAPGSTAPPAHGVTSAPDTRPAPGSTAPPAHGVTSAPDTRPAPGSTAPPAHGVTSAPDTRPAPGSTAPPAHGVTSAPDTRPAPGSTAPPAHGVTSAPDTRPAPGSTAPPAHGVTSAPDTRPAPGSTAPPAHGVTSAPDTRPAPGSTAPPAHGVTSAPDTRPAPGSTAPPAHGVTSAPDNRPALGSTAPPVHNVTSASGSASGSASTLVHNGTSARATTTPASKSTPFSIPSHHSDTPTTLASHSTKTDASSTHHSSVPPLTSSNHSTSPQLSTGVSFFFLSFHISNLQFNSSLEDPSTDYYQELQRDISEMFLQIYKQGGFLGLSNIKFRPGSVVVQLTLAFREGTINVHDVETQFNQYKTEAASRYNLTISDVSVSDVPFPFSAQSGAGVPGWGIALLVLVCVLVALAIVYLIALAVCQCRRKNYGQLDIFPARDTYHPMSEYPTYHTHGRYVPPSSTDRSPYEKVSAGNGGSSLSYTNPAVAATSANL

Assays:
[1] = target: MUC1* as it appears on cancer cells and cancerous tissues (Homo sapiens (Human)) (UniProt P15941); experiment: selection screens
[2] = target: MUC1* as it appears on cancer cells and cancerous tissues (Homo sapiens (Human)) (UniProt P15941); experiment: immunohistochemistry of human cancer tissue arrays (FIGS. 69-74; arrays of FIGS. 70-74 were stained with huMNC2scFv)
[3] = target: MUC1* as it appears on cancer cells and cancerous tissues (Homo sapiens (Human)) (UniProt P15941); experiment: immunohistochemistry of breast cancer tissue arrays, Allred scoring (FIGS. 43, 44)
[4] = target: MUC1* as it appears on cancer cells and cancerous tissues (Homo sapiens (Human)) (UniProt P15941); experiment: flow cytometry
[5] = target: MUC1* expressed on transfected cells (MUC1*45) (Homo sapiens (Human)) (UniProt P15941); experiment: flow cytometry
[6] = target: MUC1* expressed on transfected cells (MUC1*45) (Homo sapiens (Human)) (UniProt P15941); experiment: cell binding assay, CAR-transduced HEK293 cells (GFP) with CMTMR-stained K562-MUC1* cells, after wash steps (FIG. 108)
[7] = target: MUC1* expressed on transfected cells (MUC1*45) (Homo sapiens (Human)) (UniProt P15941); experiment: CAR T co-culture with HCT-FLR (HCT-116 transfected with MUC1*45), microscopy (FIG. 75C)
[8] = target: MUC1* as it appears on cancer cells and cancerous tissues (Homo sapiens (Human)) (UniProt P15941); experiment: CAR T co-culture with T47D cells with or without MMP2, MMP9 or ADAM17 conditioned media, microscopy (FIG. 76)
[9] = target: MUC1* as it appears on cancer cells and cancerous tissues (Homo sapiens (Human)) (UniProt P15941); experiment: immunofluorescence on T47D cells (FIG. 24)
[10] = target: MUC1* as it appears on cancer cells and cancerous tissues (Homo sapiens (Human)) (UniProt P15941); experiment: immunofluorescence on T47D breast cancer cells (FIG. 24)
[11] = target: MUC1* expressed on transfected cells (MUC1*45) (Homo sapiens (Human)) (UniProt P15941); experiment: flow cytometry, HCT-116 transfected with MUC1* clone #10 against empty vector clone #8
[12] = target: MUC1* as it appears on cancer cells and cancerous tissues (Homo sapiens (Human)) (UniProt P15941); experiment: tissue and cell staining
[13] = target: MUC1* as it appears on cancer cells and cancerous tissues (Homo sapiens (Human)) (UniProt P15941); experiment: flow cytometry on ZR-75-1 (1500) breast cancer cells
[14] = target: MUC1* as it appears on cancer cells and cancerous tissues (Homo sapiens (Human)) (UniProt P15941); experiment: flow cytometry (FIGS. 4D-4F)
[15] = target: MUC1* expressed on transfected cells (MUC1*45) (Homo sapiens (Human)) (UniProt P15941); experiment: flow cytometry (FIGS. 4D-4F)
[16] = target: MUC1* as it appears on cancer cells and cancerous tissues (Homo sapiens (Human)) (UniProt P15941); experiment: tissue staining
[17] = target: MUC1* as it appears on cancer cells and cancerous tissues (Homo sapiens (Human)) (UniProt P15941); experiment: flow cytometry (FIGS. 4A-4C)
[18] = target: MUC1* as it appears on cancer cells and cancerous tissues (Homo sapiens (Human)) (UniProt P15941); experiment: flow cytometry on ZR-75-1 (1500) breast cancer cells, anti-Penta-His Alexa 488

B1: mouse monoclonal antibody MN-C2 (antibody, V domains shown)
VH: EVQLEESGGGLVKPGGSLKLSCAASGFTFSGYAMSWVRQTPEKRLEWVATISSGGTYIYYPDSVKGRFTISRDNAKNTLYLQMSSLRSEDTAMYYCARLGGDNYYEYFDVWGAGTTVTVSS
VL: DIVITQSTASLGVSLGQRATISCRASKSVSTSGYSYMHWYQQRPGQPPKLLIYLASNLESGVPARFSGSGSGTDFTLNIHPVEEEDAATYYCQHSRELPFTFGGGTKLEIKR
notes: also called Min-C2
binding [1]: binds | binding [2]: binds | binding [3]: binds | binding [4]: binds | binding [5]: binds

B2: CAR57: huC2-IgD-CD8-41BB-3z (protein)
chain: EVQLVESGGGLVKPGGSLRLSCAASGFTFSGYAMSWVRQAPGKGLEWVSTISSGGTYIYYPDSVKGRFTISRDNAKNSLYLQMNSLRAEDTAVYYCARLGGDNYYEYFDVWGKGTTVTVSSGGGGSGGGGSGGGGSDIVLTQSPASLAVSPGQRATITCRASKSVSTSGYSYMHWYQQKPGQPPKLLIYLASNLESGVPARFSGSGSGTDFTLTINPVEANDTANYYCQHSRELPFTFGGGTKVEIKRTESPKAQASSVPTAQPQAEGSLAKATTAPATTRNTGRGGEEKKKEKEKEEQEERETKTPIYIWAPLAGTCGVLLLSLVITLYCKRGRKKLLYIFKQPFMRPVQTTQEEDGCSCRFPEEEEGGCELRVKFSRSADAPAYKQGQNQLYNELNLGRREEYDVLDKRRGRDPEMGGKPRRKNPQEGLYNELQKDKMAEAYSEIGMKGERRRGKGHDGLYQGLSTATKDTYDALHMQALPPR
binding [6]: binds

B4: humanized MN-E6 scFv (scFv, V domains shown, not shown: small tags and cut ends)
VH: EVQLVESGGGLVKPGGSLRLSCAASGFTFSRYGMSWVRQAPGKRLEWVSTISGGGTYIYYPDSVKGRFTISRDNAKNTLYLQMNSLRAEDTAVYYCTRDNYGRNYDYGMDYWGQGTLVTVSS
VL: EIVLTQSPATLSLSPGERATLTCSATSSVSYIHWYQQRPGQSPRLLIYSTSNLASGIPARFSGSGSGSDYTLTISSLEPEDFAVYYCQQRSSSPFTFGSGTKVEIK
notes: also called hu MN-E6 scFv
binding [9]: binds | binding [10]: binds

Second part, the binder after the results:

binding [7]: binds | binding [8]: binds
B3: huMNC2-CAR50 (CAR-T C2 CD4/CD4/4-1BB/CD3z #50) (protein)
chain: EVQLVESGGGLVKPGGSLRLSCAASGFTFSGYAMSWVRQAPGKGLEWVSTISSGGTYIYYPDSVKGRFTISRDNAKNSLYLQMNSLRAEDTAVYYCARLGGDNYYEYFDVWGKGTTVTVSSGGGGSGGGGSGGGGSDIVLTQSPASLAVSPGQRATITCRASKSVSTSGYSYMHWYQQKPGQPPKLLIYLASNLESGVPARFSGSGSGTDFTLTINPVEANDTANYYCQHSRELPFTFGGGTKVEIKRTSGQVLLESNIKVLPTWSTPVQPMALIVLGGVAGLLLFIGLGIFFKRGRKKLLYIFKQPFMRPVQTTQEEDGCSCRFPEEEEGGCELRVKFSRSADAPAYKQGQNQLYNELNLGRREEYDVLDKRRGRDPEMGGKPRRKNPQEGLYNELQKDKMAEAYSEIGMKGERRRGKGHDGLYQGLSTATKDTYDALHMQALPPR

binding [1]: binds | binding [11]: binds | binding [12]: binds | binding [13]: binds | binding [14]: binds | binding [15]: binds | binding [16]: binds
B5: mouse monoclonal antibody MN-E6 (antibody, V domains shown)
VH: EVKVVESGGDLVKPGGSLKLSCVVSGFTFSRYGMSWVRQTPGKRLEWVATISGGGTYIYYPDSVKGRFTISRDNAKNTLYLQMSSLKSEDTAMYHCTRDNYGRNYDYGMDYWGQGTSVTVSS
VL: QIVLTQSPAIMSASPGEEVTLTCSATSSVSYIHWFQQRPGTSPKLWIYSTSNLASGVPVRFSGSGYGTSYSLTISRMEAEDAATYYCQQRSSSPFTFGSGTKLEIK
notes: also called Min-E6; parent MN-E6 antibody

binding [17]: binds | binding [18]: binds | binding [9]: binds | binding [10]: binds
B6: humanized MN-C2 scFv (scFv, V domains shown, not shown: small tags and cut ends)
VH: EVQLVESGGGLVKPGGSLRLSCAASGFTFSGYAMSWVRQAPGKGLEWVSTISSGGTYIYYPDSVKGRFTISRDNAKNSLYLQMNSLRAEDTAVYYCARLGGDNYYEYFDVWGKGTTVTVSS
VL: DIVLTQSPASLAVSPGQRATITCRASKSVSTSGYSYMHWYQQKPGQPPKLLIYLASNLESGVPARFSGSGSGTDFTLTINPVEANDTANYYCQHSRELPFTFGGGTKVEIKR
notes: also called huMN-C2 scFv; hMN-C2 scFv
